Earlier results in patent US10941379B2, “Microbial system for biosynthesis of natural and engineered products coupled to in situ extraction in supercritical CO2” (Massachusetts Institute of Technology, priority 2016, dated 2021).
Some results were stated once for a whole list of compounds, not compound by compound.

Settings: partitioning from the aqueous phase into scCO2; Timko et al., 2004; cited from earlier work

Compound: CC(C)CO [isobutanol]
- Kow: > 4
